Test results taken from PMC12670160, “A drug-repurposing screen of FDA- and EMA-approved drugs identifies two NF-κB inhibitors active against eumycetoma” (Journal of Antimicrobial Chemotherapy, 2025).
Structures can show the parent of a compound that is named as a salt. About 130 (2.5%) of roughly 5,300 compounds showed an effect of 50% or more. The list shows a part of the results.

system: M. mycetomatis strain mm55; details: primary screen, metabolic activity vs growth control; 96 h, 2 µM; inhibitor

Structure (SMILES) | % viability [%]
CS(=O)(=O)c1ccc(-c2cnc(NCc3ccco3)n3cnnc23)cc1 [ONC0002272, eed226] | 58.08
O=C1NC(=O)c2c1c1c3ccccc3n3c1c1c2c2ccccc2n1C1CCC3O1 [ONC0001372, sb218078] | 97.11
COC(=O)C(Cc1ccc(OCCn2c(=O)sc3cc(C(=O)c4ccccc4)ccc32)cc1)C(=O)OC [ONC0000904, s26948] | 86.12
COc1cccc2cc(-c3nc([C@H]4CC[C@H](C(=O)O)CC4)n4ncnc(N)c34)[nH]c12 [ONC0005044, osi027] | 67.14
CC(C)=CCC[C@](C)(O)[C@@H]1CC=C(C)CC1 [ONC0002132, levomenol] | 73.6
N[C@@H](C(=O)O)c1ccc(C(=O)O)c(C(=O)O)c1 [ONC0001521, 34dcpgr] | 108.8
CCn1nc(C2CCN(C(=O)CCO)CC2)nc1-c1cnc(N)c(-c2nnc(C(C)(C)C)o2)n1 [ONC0000975, azd8835] | 76.93
O=C(Nc1ccccc1)N1CCC(Cc2cnc3ccccc3c2)CC1 [ONC0000229, pf750] | 105.3
Cc1c(C)c2c(c(C)c1O)CCC(C)(C(=O)O)O2 (centres unmarked) [ONC0003486, trolox] | 64.78
N=C(N)NN [ONC0005358, pimagedine hydrochloride] | 81.59
FC(F)(F)C(F)(F)C(F)(F)N(C(F)(F)C(F)(F)C(F)(F)F)C(F)(F)C(F)(F)C(F)(F)F [ONC0003646, perfluorotripropylamine] | 72.65
CC[C@H](C)C(=O)O[C@H]1C[C@@H](C)C=C2C=C[C@H](C)[C@H](CC[C@@H]3C[C@@H](O)CC(=O)O3)[C@H]21 [ONC0002444, lovastatin] | 92.72
CCO[C@H]1O[C@@H]2O[C@@]3(C)CC[C@H]4[C@H](C)CC[C@@H]([C@H]1C)[C@@]24OO3 [ONC0001164, artemotil] | 106.6
Clc1ccc(C(Cn2ccnc2)OCc2ccc(Sc3ccccc3)cc2)c(Cl)c1 (centres unmarked) [ONC0004926, fenticonazole nitrate] | 131.8
O=C(CCBr)N1CC[N+]2(CC1)CC[N+]1(CCN(C(=O)CCBr)CC1)CC2 [ONC0002743, 312bis3bromopropanoyl312diaza69diazoniadispiro5252hexadecane dichloride dichloride] | 88.14
CCN(CC)CCOC(=O)c1ccc(N)cc1 [ONC0000447, procaine hydrochloride] | 88.33
CC1(c2ccccc2)OC(C(=O)O)=CC1=O (centres unmarked) [ONC0001728, acifran] | 66.2
O=c1cc(-c2ccccc2)oc2cc(O)c(O)c(O)c12 [ONC0001603, baicalein] | 81.41
CN1CCN(c2ccc(Nc3ncc4cc(C#N)c(=O)n(C5CCCC5)c4n3)cc2)CC1 [ONC0001086, on123300] | 53.59

Some values from the list.
`N=C(N)NN` [ONC0005358, pimagedine hydrochloride] | % viability [%]: 81.59
`Clc1ccc(C(Cn2ccnc2)OCc2ccc(Sc3ccccc3)cc2)c(Cl)c1` (centres unmarked) [ONC0004926, fenticonazole nitrate] | % viability [%]: 131.8

Carrying on:

Structure (SMILES) | % viability [%]
CC(C)(Oc1ccc(Cl)cc1)C(=O)N1CSCC1C(=O)O (centres unmarked) [ONC0003754, timofibrate] | 102.1
CN(C)CCn1nnnc1SCC1=C(C(=O)O)N2C(=O)[C@@H](NC(=O)Cc3csc(N)n3)[C@H]2SC1 [ONC0002085, cefotiam hydrochloride] | 84.18
Cc1ccc(-c2ncccn2)c(C(=O)N2C[C@H](COc3ccc(F)cn3)CC[C@H]2C)c1 [ONC0005570, filorexant] | 73.84
CC(C)c1ccc2c(c1)CC[C@H]1[C@](C)(CN)CCC[C@]21C [ONC0000210, lylamine] | 63.87
CN[C@H]1C[C@@H](N)[C@H](O)[C@@H](O[C@@H]2O[C@H](CO)[C@@H]3OC4(O[C@@H]3[C@@H]2O)O[C@H](C(N)CO)[C@H](O)[C@H](O)[C@H]4O)[C@@H]1O (some centres unmarked) [ONC0004423, hygromycin b] | 124.4
O=C(Nc1ccc(S(=O)(=O)C(F)(F)F)cc1)C1=CCN(c2ncccc2C(F)(F)F)CC1 [ONC0002673, a784168] | 70.55
CC(=O)O[C@H]1C[C@@]2(C)[C@@H](C[C@@H](O)[C@H]3[C@@]4(C)CC[C@@H](O)[C@@H](C)[C@@H]4CC[C@@]32C)/C1=C(\CCC=C(C)C)C(=O)O [ONC0000509, fusidic acid] | 64.62
O=C(O)Cc1cccc(OCCCN(Cc2cccc(C(F)(F)F)c2Cl)CC(c2ccccc2)c2ccccc2)c1 [ONC0003534, gw3965] | 116
O=[N+]([O-])/C=C/c1ccc2c(c1)OCO2 [ONC0004710, mns 34methylenedioxynitrostyrene] | 114.1
CC(C)N(CCC(C(N)=O)(c1ccccc1)c1ccccn1)C(C)C (centres unmarked) [ONC0000638, disopyramide phosphate] | 113.8
NCc1ccccc1Sc1ccccc1CO [ONC0005567, bipenamol] | 100.4
CC(=O)N[C@@H](CS)C(=O)O [ONC0000337, acetylcysteine] | 67.99
CCN(CC)CCOc1ccc2c(c1)C(=O)c1cc(OCCN(CC)CC)ccc1-2 [ONC0004179, tilorone] | 120.4
NCCCCCNCC12CC3CC(CC(C3)C1)C2 [ONC0004720, iem 1754 dihydrobromide] | 114.3
O=C1CC(=O)c2c(Cl)c(Cl)c(Cl)c(Cl)c21 [ONC0005190, tcid] | 96.33
c1cc2c(cc1[C@H]1OC[C@H]3[C@@H]1CO[C@@H]3c1ccc3c(c1)OCO3)OCO2 [ONC0004953, sesamin fagarol] | 94.91
C/C=C/C[C@@H](C)C(=O)[C@H]1C(=O)N[C@@H](C(C)C)C(=O)N(C)CC(=O)N(C)[C@@H](CC(C)C)C(=O)N[C@@H](C(C)C)C(=O)N(C)[C@@H](CC(C)C)C(=O)N[C@@H](C)C(=O)N[C@H](C)C(=O)N(C)[C@@H](CC(C)C)C(=O)N(C)[C@@H](CC(C)C)C(=O)N(C)[C@@H](C(C)C)C(=O)N1C [ONC0002268, valspodar] | 56.22
O=C(O)c1ccc2c(c1)nc(Nc1cccc(Cl)c1)c1ccncc12 [ONC0004933, cx4945 silmitasertib] | 72.14
CC1(C)O[C@@H]2C[C@H]3[C@@H]4CCC5=CC(=O)C=C[C@]5(C)[C@H]4[C@@H](O)C[C@]3(C)[C@]2(C(=O)CO)O1 [ONC0004126, desonide] | 118

Structure (SMILES) | % viability [%]
O=C1NCCc2[nH]c(-c3ccncc3)cc21 [ONC0002632, pha767491] | 69.18
COC(=O)N[C@H](C(=O)N1CCC[C@H]1c1nc(-c2ccc3c(c2)O[C@@H](c2ccccc2)n2c-3cc3cc(-c4c[nH]c([C@@H]5CCCN5C(=O)[C@@H](NC(=O)OC)C(C)C)n4)ccc32)c[nH]1)C(C)C [ONC0001980, elbasvir] | 84.49
Cc1ccc(NC(=O)c2cccc(N(C)C)c2)cc1NC(=O)c1ccc(O)cc1 [ONC0003044, zm336372] | 76.4
Cc1ccc(S(=O)(=O)Nc2ccc3c(c2)c(C(=O)C(F)(F)F)cn3CC(=O)N[C@@H](CC(C)C)C(=O)O)cc1 [ONC0002700, ntrc824] | 67.52
NC(=O)OC[C@@H]1[C@H](NC(=O)/C(=N\OCC(=O)O)c2csc(N)n2)C(=O)N1S(=O)(=O)O [ONC0005332, carumonam] | 121.8
C#C[C@]1(O)CC[C@H]2[C@@H]3CCC4=CC(=O)CC[C@@H]4C3CC[C@@]21CC (some centres unmarked) [ONC0000428, norgestrel] | 73.78
CNc1nc(C)nc(N[C@H]2CCC[C@@H](C(=O)NCc3ccc(C#N)cc3C(F)(F)F)C2)n1 [ONC0001234, gsk2256294a] | 74.03
O=C(Nc1cc2cc[nH]c2cn1)c1ccccc1 [ONC0004711, oac1] | 138.9
COc1ccc(S(=O)(=O)Nc2cccnc2Nc2ccc(O)cc2)cc1 [ONC0004681, abt751 e7010] | 87.95
Cc1ccc2cc(-c3c(C)ccc(C(=O)c4c(-c5ccccc5)n(C)n(-c5ccccc5)c4=O)c3N)ccc2n1 [ONC0001349, amgperk44] | 93.26
C[C@]12C[C@H](O)[C@H]3[C@@H](CCC4=CC(=O)CC[C@@]43C)[C@@H]1CC[C@@H]2C(=O)CO [ONC0002317, corticosterone] | 76.74
CCNC(=O)CCC/C=C\C[C@@H]1[C@@H](/C=C/[C@@H](O)CCc2ccccc2)[C@H](O)C[C@@H]1O [ONC0004864, bimatoprost] | 75.33
CCCCOc1ccc(CC/C=C2\SC(=O)N(CCN)C2=O)cc1 [ONC0001767, k145 hydrochloride] | 126.7
CCCCNc1nc(N)c2[nH]c(=O)n(Cc3ccc(OCCN(C)C)nc3)c2n1 [ONC0000193, dsr6434] | 63.87
O=C(CCCCCCC(=O)Nc1ccccc1)NO [ONC0004741, vorinostat saha mk0683] | 83.83
CCc1ccc2c(-c3cccc(Cl)c3)nc(=O)n(CC)c2n1 [ONC0004442, ym976] | 108.3
O=C(/C=C/c1ccc(O)c(O)c1)c1ccc(O)cc1O [ONC0005228, butein] | 150.4
CC[C@H]1OC(=O)C[C@@H](O)[C@H](C)[C@@H](O[C@@H]2O[C@H](C)[C@@H](O[C@H]3C[C@@](C)(O)[C@@H](O)[C@H](C)O3)[C@H](N(C)C)[C@H]2O)[C@@H](CC=O)C[C@@H](C)C(=O)/C=C/C(C)=C/[C@@H]1CO[C@@H]1O[C@H](C)[C@@H](O)[C@@H](OC)[C@H]1OC [ONC0003962, tylosin tartrate] | 73.68
